{
  "sequences": {"note": "Sequences of proteins named here, by UniProt entry; tags and fusion partners are left off.", "UniProt P03372, whole entry": "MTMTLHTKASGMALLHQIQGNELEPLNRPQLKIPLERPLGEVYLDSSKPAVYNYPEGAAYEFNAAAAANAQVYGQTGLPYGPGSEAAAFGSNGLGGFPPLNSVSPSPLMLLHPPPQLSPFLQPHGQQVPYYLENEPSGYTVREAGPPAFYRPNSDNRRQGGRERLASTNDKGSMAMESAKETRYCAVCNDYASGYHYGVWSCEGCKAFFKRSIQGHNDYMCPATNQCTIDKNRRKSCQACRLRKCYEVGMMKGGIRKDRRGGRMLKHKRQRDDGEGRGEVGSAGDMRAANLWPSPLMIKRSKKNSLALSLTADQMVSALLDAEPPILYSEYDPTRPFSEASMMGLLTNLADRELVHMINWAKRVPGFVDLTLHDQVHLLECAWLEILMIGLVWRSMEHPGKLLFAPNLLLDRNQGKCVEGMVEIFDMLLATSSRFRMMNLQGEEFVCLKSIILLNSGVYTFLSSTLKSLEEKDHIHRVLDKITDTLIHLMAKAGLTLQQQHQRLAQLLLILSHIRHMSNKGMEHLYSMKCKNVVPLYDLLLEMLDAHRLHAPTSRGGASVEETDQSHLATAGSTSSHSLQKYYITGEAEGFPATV"},
  "source": "patent US5091518",
  "key": {"[1]": {"target": "T1, Glucocorticoid receptor (GR) (UniProt P04150)", "T1 sequence (looked up, limits assumed)": "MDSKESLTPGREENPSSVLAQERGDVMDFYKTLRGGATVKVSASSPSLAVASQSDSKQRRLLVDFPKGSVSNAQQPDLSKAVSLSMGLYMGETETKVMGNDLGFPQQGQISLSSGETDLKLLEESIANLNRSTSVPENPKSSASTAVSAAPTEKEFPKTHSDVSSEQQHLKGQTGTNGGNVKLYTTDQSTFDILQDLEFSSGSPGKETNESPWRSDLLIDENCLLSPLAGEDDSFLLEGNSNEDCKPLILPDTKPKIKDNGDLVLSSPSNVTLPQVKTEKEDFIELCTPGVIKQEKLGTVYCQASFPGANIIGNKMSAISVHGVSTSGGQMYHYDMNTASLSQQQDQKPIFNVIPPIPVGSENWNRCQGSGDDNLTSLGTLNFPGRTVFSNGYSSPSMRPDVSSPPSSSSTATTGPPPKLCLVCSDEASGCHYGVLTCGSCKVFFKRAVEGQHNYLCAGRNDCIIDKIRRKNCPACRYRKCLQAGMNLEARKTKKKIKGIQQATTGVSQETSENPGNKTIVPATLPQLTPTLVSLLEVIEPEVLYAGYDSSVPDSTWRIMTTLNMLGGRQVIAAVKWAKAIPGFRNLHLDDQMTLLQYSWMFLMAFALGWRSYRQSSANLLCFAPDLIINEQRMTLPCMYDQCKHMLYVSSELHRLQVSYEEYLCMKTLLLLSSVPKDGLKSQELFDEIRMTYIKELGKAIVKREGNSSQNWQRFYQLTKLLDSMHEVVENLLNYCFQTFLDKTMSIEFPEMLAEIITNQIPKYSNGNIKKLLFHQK", "experiment": "pull-down", "conditions": "GR extract does not recognize betaRE2; protein in a lysate after overexpression; label: 32P"}, "Estrogen receptor (ER)": {"target": "Estrogen receptor (ER) (UniProt P03372)", "experiment": "activity in cells", "conditions": "CV-1, with or without ligand; protein in cells; only the site is given"}, "[2]": {"system": "Thyroid hormone receptor (TR)", "experiment": "activity in cells", "conditions": "about 10- to 20-fold less activation; protein in cells; only the site is given"}, "[3]": {"target": "T2, Vitamin D receptor (VD3R) (UniProt P11473)", "T2 sequence (looked up, limits assumed)": "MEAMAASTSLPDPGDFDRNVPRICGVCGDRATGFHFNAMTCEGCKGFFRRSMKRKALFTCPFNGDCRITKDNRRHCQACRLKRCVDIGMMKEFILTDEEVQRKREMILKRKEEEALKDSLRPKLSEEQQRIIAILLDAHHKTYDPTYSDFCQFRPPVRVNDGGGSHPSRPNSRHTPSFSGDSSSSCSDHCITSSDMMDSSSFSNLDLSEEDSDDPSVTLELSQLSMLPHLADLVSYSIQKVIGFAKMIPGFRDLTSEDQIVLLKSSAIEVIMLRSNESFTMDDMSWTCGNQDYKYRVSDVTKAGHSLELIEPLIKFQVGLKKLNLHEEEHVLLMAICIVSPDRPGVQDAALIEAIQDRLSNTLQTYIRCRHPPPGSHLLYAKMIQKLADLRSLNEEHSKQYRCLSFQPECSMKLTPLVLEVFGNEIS", "experiment": "activity in cells", "conditions": "about 10- to 20-fold less activation; protein in cells; only the site is given"}, "[4]": {"target": "T1, Glucocorticoid receptor (GR)", "experiment": "activity in cells", "conditions": "CV-1, with or without ligand; protein in cells; only the site is given"}, "[5]": {"target": "T3, Retinoic acid receptor gamma (RAR-gamma) (UniProt P13631)", "T3 sequence (looked up, limits assumed)": "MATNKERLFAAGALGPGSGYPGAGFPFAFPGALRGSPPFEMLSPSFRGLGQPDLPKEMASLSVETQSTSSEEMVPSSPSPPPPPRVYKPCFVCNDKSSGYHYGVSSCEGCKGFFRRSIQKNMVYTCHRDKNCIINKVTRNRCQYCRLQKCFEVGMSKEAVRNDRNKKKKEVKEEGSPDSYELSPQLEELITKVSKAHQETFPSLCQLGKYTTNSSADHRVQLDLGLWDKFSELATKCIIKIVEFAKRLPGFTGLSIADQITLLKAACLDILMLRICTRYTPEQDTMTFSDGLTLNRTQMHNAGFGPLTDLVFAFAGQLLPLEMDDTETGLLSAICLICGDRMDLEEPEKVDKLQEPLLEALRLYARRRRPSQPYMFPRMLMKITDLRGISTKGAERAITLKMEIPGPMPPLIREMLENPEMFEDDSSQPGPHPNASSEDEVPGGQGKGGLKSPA", "experiment": "activity in cells", "conditions": "functional only upon cotransfected RAR; all three subtypes; protein in cells; variant of betaRE1 (RAR-beta RARE); only the site is given"}, "[6]": {"target": "T4, Retinoic acid receptor alpha (RAR-alpha) (UniProt P10276)", "T4 sequence (looked up, limits assumed)": "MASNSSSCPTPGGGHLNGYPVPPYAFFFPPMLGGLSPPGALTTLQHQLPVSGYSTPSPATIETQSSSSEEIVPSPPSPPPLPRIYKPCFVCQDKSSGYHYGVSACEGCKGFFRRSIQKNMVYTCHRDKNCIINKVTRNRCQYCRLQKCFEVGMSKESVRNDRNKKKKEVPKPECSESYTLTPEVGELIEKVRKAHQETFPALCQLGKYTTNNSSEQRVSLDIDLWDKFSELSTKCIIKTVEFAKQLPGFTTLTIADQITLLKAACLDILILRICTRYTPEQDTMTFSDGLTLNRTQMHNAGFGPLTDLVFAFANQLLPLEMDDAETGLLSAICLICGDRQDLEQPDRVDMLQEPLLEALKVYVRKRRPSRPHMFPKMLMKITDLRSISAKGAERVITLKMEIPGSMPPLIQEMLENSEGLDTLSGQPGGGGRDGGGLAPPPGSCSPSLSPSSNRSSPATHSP", "experiment": "activity in cells", "conditions": "functional only upon cotransfected RAR; protein in cells; protein details: RSV expression vector, CV-1 cells; variant of betaRE1 (RAR-beta RARE); only the site is given"}},
  "note": "For some of these results: No signal at the amounts used counts as a negative. For some of these results: Tags and fusion partners may be left off the protein sequences shown. For some of these results: A weaker result is weaker than the reference pair of the same experiment. For some of these results: At least one result comes from cells or an extract, where the contact may be indirect. For some of these results: For at least one entry, the source does not settle the construct or the ends of the probe.",
  "data": [
    {"sequence": "AAGCTTAAGGGTTCACCGAAAGTTCACTCGCATAGCTT (double strand) [betaRE2 oligo (RAR-beta RARE)]", "values": [
      {"measurement": "binding result", "setting": "[1]", "result": "no binding"}
    ]},
    {"sequence": "AAGCTTAAGGGTTCACCGAAAGTTCACTCGCATATATTAGCTT (double strand) [betaRE1 (RAR-beta RARE)]", "values": [
      {"measurement": "activity on this sequence", "setting": "Estrogen receptor (ER)", "result": "not active"},
      {"measurement": "activity on this sequence", "setting": "[2]", "result": "less active"},
      {"measurement": "activity on this sequence", "setting": "[3]", "result": "less active"},
      {"measurement": "activity on this sequence", "setting": "[4]", "result": "not active"}
    ]},
    {"sequence": "GTTCAC (double strand) [betaRE4 / betaRE5 single half site]", "values": [
      {"measurement": "activity on this sequence", "setting": "[5]", "result": "less active"},
      {"measurement": "activity on this sequence", "setting": "[6]", "result": "less active"}
    ]}
  ]
}
